# Laboratory results as given in paper PMC4374698.
# Protein sequences, listed by entry. Tags and fused reporters are not part of them. Residues count along the entry.
# UniProt Q9HC16: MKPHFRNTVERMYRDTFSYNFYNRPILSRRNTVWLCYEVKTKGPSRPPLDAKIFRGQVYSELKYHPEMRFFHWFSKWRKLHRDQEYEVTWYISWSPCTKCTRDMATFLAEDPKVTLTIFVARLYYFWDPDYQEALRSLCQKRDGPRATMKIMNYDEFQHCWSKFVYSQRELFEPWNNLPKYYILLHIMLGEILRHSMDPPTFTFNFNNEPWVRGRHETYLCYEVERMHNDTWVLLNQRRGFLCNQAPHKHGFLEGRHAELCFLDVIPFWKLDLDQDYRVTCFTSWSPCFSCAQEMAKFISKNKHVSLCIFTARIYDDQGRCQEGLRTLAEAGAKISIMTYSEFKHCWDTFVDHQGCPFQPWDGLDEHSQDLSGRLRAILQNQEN
# UniProt Q99IB8, residues 1031-1661: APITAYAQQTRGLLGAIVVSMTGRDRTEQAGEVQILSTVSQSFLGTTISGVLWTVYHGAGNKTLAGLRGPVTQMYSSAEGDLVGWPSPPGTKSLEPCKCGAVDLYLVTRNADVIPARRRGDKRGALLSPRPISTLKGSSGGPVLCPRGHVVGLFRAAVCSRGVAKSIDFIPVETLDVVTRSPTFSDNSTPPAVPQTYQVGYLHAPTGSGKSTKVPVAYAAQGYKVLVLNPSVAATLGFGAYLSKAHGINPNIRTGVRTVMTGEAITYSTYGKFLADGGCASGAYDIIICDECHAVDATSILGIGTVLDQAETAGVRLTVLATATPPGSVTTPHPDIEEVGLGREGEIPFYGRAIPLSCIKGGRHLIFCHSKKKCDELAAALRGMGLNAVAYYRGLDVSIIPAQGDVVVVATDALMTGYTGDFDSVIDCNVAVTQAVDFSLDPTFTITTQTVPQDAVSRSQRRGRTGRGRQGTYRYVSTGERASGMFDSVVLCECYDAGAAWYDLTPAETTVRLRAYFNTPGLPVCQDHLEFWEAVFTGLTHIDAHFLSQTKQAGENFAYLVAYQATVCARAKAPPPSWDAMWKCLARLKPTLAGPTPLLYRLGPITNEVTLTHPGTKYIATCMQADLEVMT
# No constants are given. Whether binding was seen depends on the method and setting. In cells and extracts the contact can be indirect. Here binding means that the protein was enriched with, or labelled near, the bait; the list need not be complete.
# Target: full length wild-type hA3G fused with an HA tag at the C-terminus (hA3G-HA), in lysate of transfected Huh7.5 cells (human) (UniProt Q9HC16)
# Experiment: affinity purification with mass spectrometry; anti-HA immunoprecipitate of HCV-infected Huh7.5 cells transfected with phA3G-HA; bands of the SDS-PAGE gel extracted and sequenced by LC-MS/MS
substance,measurement,value
"HCV non-structural protein NS3, from HCV-infected Huh7.5 cells (from UniProt Q99IB8 1031-1661)",binding,binds
